Assay results as given in publication PMC10681313.
No constants are given. Whether binding was seen depends on the method and setting. Binding seen in cells or lysates may run through a third protein. Some entries that bind do so weakly or less than the wild type. Sequences can lack the tags named with a protein. Values belong to the molecule of their own block, whether it stands above or below them.

Protein sequences, listed by entry. Tags and fused reporters are not part of them. Lines headed by an entry give the natural chain unless they say otherwise; changes in a name come on top. Chains listed by the source or under a name are the forms on record and can include a tag or linker.
UniProt Q9JMB7: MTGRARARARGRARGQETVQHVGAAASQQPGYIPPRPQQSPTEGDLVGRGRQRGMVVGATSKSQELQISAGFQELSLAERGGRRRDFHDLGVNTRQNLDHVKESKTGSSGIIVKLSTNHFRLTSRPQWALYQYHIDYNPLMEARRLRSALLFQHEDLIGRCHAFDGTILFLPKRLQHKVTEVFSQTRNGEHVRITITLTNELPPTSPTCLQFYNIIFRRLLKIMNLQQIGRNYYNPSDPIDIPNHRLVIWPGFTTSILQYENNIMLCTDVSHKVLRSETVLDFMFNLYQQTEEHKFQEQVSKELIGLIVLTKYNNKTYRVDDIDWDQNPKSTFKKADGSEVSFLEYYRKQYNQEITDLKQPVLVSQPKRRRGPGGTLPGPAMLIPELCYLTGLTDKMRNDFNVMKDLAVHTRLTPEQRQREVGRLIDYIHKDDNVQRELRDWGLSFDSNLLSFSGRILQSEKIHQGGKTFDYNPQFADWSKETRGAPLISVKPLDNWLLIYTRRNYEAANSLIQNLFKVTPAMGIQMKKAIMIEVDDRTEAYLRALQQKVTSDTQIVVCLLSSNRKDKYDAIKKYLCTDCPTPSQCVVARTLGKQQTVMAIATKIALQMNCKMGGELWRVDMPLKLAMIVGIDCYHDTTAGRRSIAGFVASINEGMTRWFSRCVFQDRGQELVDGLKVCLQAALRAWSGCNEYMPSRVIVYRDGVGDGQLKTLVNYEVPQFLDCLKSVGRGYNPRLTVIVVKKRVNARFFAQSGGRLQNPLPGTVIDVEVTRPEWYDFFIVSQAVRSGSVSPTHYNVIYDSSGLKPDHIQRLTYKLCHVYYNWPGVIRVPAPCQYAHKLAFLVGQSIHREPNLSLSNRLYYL
FLAG-tagged MIWI^RK (Q9JMB7, form named): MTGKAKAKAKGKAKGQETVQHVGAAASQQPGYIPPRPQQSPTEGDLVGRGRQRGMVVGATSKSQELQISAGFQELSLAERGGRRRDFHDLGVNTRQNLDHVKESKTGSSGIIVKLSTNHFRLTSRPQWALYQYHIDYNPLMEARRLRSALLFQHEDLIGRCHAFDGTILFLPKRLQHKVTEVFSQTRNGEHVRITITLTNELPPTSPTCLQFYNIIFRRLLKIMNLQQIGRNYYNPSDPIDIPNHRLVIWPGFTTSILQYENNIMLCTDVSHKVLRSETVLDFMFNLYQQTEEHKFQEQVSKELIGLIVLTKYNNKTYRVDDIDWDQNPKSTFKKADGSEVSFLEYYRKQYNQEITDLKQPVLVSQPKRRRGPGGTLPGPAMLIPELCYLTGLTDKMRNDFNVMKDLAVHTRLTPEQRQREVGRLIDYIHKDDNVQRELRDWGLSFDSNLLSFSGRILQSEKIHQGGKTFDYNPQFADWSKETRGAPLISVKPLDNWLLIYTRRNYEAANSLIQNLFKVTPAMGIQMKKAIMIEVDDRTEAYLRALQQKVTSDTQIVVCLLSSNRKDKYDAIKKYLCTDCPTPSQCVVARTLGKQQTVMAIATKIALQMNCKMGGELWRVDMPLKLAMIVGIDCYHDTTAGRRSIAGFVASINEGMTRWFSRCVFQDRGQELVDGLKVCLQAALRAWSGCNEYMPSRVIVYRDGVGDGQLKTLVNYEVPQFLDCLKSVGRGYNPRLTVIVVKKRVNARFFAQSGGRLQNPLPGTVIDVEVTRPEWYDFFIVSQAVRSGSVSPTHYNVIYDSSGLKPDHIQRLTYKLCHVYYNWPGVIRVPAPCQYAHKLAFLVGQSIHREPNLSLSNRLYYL
UniProt P61407: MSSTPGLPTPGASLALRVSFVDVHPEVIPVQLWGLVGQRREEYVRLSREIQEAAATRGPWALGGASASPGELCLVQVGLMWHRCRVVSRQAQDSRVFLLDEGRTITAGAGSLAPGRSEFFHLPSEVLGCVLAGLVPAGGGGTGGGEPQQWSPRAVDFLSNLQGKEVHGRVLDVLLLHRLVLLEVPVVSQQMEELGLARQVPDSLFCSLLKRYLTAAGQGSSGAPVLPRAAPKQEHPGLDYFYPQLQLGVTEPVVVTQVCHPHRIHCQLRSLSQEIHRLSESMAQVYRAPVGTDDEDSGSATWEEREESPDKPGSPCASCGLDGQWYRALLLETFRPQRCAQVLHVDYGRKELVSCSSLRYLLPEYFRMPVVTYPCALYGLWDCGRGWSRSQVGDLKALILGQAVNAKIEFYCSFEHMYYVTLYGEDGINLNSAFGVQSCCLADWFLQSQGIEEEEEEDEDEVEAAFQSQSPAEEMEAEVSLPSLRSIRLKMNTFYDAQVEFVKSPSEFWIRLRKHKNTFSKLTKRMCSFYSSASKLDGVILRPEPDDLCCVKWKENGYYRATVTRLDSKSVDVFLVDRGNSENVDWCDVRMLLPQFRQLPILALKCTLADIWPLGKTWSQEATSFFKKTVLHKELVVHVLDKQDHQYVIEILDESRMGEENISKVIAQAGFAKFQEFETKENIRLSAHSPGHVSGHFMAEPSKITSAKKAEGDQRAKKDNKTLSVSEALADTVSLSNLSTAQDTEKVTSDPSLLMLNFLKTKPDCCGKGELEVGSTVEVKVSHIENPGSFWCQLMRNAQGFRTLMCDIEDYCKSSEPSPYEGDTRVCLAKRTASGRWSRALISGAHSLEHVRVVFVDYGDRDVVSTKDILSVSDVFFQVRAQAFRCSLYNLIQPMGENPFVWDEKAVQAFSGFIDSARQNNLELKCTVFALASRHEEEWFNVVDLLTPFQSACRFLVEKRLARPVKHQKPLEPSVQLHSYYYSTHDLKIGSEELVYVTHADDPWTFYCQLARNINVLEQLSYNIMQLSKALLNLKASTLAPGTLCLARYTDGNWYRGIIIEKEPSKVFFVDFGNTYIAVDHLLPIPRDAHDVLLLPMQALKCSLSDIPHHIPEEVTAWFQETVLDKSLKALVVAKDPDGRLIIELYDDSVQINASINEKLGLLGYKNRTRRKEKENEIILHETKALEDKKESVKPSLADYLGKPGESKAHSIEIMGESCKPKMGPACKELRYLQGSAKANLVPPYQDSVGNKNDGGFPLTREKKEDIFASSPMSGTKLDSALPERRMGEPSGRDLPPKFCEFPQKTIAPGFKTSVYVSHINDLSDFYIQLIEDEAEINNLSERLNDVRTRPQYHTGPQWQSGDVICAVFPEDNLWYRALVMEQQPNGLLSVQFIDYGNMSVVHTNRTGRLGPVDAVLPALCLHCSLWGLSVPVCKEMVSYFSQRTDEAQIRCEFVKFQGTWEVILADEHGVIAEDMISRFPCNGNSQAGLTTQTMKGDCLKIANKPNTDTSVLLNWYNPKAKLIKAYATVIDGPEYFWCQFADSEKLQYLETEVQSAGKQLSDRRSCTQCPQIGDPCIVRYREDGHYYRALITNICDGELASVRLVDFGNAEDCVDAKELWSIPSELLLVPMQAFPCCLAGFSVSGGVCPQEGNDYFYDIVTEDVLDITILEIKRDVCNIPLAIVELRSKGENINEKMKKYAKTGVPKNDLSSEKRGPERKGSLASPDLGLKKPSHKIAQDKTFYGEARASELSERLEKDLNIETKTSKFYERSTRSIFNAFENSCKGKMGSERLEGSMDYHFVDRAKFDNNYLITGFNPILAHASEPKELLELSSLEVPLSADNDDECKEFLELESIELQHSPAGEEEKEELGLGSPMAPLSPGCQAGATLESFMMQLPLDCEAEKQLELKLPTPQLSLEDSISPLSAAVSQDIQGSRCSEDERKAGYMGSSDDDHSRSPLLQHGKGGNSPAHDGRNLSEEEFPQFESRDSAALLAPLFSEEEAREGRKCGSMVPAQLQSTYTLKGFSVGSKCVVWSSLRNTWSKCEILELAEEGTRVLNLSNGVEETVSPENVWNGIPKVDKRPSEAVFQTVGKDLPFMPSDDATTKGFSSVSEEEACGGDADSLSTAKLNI
UniProt Q99MV7: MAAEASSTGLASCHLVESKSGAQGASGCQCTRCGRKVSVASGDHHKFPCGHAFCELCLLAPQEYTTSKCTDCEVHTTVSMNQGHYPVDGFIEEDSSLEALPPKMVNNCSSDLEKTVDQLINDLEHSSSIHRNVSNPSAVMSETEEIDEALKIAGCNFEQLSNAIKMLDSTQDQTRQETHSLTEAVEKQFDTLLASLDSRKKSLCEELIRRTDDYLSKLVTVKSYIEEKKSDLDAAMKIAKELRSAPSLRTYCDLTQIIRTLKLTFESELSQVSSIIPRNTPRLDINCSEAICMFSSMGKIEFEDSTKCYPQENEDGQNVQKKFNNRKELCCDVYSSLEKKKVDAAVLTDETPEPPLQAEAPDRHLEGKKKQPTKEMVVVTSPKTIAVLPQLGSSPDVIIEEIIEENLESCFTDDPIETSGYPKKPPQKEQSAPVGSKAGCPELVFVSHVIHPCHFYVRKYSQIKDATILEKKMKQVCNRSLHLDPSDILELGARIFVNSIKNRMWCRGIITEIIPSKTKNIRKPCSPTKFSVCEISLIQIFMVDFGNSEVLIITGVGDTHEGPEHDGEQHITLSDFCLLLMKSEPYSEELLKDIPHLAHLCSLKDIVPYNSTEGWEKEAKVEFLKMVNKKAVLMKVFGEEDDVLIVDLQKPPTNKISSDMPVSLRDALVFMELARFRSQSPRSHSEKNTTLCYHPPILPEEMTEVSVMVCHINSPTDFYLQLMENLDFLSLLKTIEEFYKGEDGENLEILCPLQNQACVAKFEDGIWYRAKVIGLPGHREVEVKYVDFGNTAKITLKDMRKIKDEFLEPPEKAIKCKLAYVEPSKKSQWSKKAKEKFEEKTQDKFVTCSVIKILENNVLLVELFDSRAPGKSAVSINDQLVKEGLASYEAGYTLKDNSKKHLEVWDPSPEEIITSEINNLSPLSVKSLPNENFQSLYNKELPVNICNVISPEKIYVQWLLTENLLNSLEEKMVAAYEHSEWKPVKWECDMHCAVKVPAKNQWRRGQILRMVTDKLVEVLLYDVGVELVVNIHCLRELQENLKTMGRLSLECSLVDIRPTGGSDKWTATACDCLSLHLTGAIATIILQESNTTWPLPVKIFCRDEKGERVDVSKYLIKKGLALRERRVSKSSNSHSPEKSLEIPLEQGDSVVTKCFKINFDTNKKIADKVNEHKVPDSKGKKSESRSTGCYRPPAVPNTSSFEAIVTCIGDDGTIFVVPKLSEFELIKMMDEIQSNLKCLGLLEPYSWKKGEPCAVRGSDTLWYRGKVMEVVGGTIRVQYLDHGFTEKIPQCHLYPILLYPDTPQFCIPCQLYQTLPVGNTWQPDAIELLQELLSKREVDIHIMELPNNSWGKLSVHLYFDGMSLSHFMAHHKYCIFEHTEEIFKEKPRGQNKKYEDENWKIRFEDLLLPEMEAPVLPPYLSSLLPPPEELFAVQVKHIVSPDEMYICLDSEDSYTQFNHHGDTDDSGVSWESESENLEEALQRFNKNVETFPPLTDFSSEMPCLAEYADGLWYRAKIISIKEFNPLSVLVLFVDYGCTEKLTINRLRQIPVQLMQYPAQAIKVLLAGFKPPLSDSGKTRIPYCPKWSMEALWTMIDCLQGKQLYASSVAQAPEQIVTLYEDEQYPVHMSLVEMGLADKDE

Key:
FLAG-tagged MIWI (mouse) = FLAG-tagged MIWI (mouse) (UniProt Q9JMB7); assay: co-IP; HEK293T cells co-transfected with FLAG-tagged MIWI or MIWI^RK and GFP-tagged proteins; after 48 h immunoprecipitation with anti-FLAG M2 Affinity Gel; Western blotting with anti-GFP and anti-FLAG
[1] = target: FLAG-tagged MIWI^RK (mouse) (UniProt Q9JMB7); assay: as above

Molecule: GFP-tagged TDRD6 (from UniProt P61407 1-2134)
- binding (FLAG-tagged MIWI (mouse)): binds

B1: GFP-tagged TDRKH (protein, UniProt Q80VL1 1-560)
chain: MSTERTSWTNLSTIQKIALGLGIPASATVAYILYRRYRESREERLTFVGEDDIEIEMRVPQEAVKLIIGRQGANIKQLRKQTGARIDVDTEDVGDERVLLISGFPVQVCKAKAAIHQILTENTPVFEQLSVPQRSVGRIIGRGGETIRSICKASGAKITCDKESEGTLLLSRLIKISGTQKEVAAAKHLILEKVSEDEELRKRIAHSAETRVPRKQPISVRREEVTEPGGAGEAALWKNTNSSMGPATPLEVPLRKGGGDMVVVGPKEGSWEKPNDDSFQNSGAQSSPETSMFEIPSPDFSFHADEYLEVYVSASEHPNHFWIQIIGSRSLQLDKLVSEMTQHYENSLPEDLTVHVGDIVAAPLSTNGSWYRARVLGTLENGNLDLYFVDFGDNGDCALKDLRALRSDFLSLPFQAIECSLARIAPTGEEWEEEALDEFDRLTHCADWKPLVAKISSYVQTGISTWPKIYLYDTSDEKKLDIGLELVRKGYAVELPEDMEENRTVPNMLKDMATETDDSLASILTETKKSPEEMPHTLSCLSLSEAASMSGDDNLEDDLF
- binding (FLAG-tagged MIWI (mouse)): binds

B4: GFP-tagged STK31 (protein, UniProt Q99MW1 1-1018)
chain: MWGQRLFAGTAVAQSVSFPGLVQMDEDTHYNKVEDVVGSHVEDAVTFWAQNVSKNKDIMKIGCSLSEVCPLANSVFGNLDPKKIYGGLFSEDKCWYRCKVLKTISDDKCLVRYIDYGNTEILNRSDIVEIPPELQFSSIAKKYRLWGLQIPSGQEVTQFDQGRTFLGSLIFEKEIKMRIKATYQDGTVIAQAEYGTVDIGEEVAKKGFAEKCRLTSGIDACEAKKPDPNQLALRSLKNPIPLWGRRSNQSTFSRPKGHFNGRLTLDVKYETSAGNHVTFPKESLAAGDFNLGSNVSLAKIKQDQKLIEENEKLKTEKEVLLENYKALELKVEQTAQELQQEKTATMDLTKHLESTLKTCVGTRLKNLAAKVELLKEIRHINISIRFGNDLSDAMQVLDEGSFTTLASLNELEKIWAEYNVAQEKIQTCLNENEGNILIAERNEVQQKLFVAVDVFILEVDDLPLDKRLKTLQDLATSLESVYGKAKEGTNNSEETLRKFYDWQCTKREEFASIRSETEASLQHLVAWFQSSQKVFDLSLDEPLTSEDLIGNIDEILEKTESCVCKELELSLIEQGVIDKEIILSTYSQVLQKIHSEEKFIATLLSKYKDSVEFKKQMIDCLNKNPNVDYLLSIKKTLKGLKAQLRWKLVEKSNLEESDDHDGTEIEKIKQEITQLRNSVFQEIYHEREEYEKLNSLTQKWFPELPLLYPEIGLLKYMNSGGLLTMSLERDLLDTEPMKELSSKRPLVCSEVNGQPVLLKGYSVDVDTEGRVIQRAASYHRACGYAKEESGLLPLIFLFLCKSDPVAYLMVPYYPKANLSAVQASMPLTSEEALKVMKGVARGLHTLHSANIIHGSLHQNNVFALNREQGIVGDYDFTKSESQRASVNAMVGGLSLLSPELKTGKPPSASSDLYAYGCLFLWLSVQNQEFETNEDGIPKVDQFHLDDNVKSLLCSLIYFRSSMTAEQVLNAECFLLPKGKSVPIPEKEIECTQHSREDESKMESLDRYSEKTRNGEANP
- binding (FLAG-tagged MIWI (mouse)): binds
- binding [1]: binds

B5: GFP-tagged TDRD1 (protein, UniProt Q99MV1 1-1172)
chain: MMPRNNLEASTCKMAEPFNFEKKESKPPPQDPLRSPVAQHNHPTFRLKSPENGNTKNNFLLCEQNKQYLASQEDSSVVSSNPAVVNGEVGGSKGDRKPPPTGNPVSPLSLGNSSPPNQVKTKPSSNVTPEKSKKSHKLFENALSVNNPALFNSLGPPLRSTTCHRCGLFGSLRCSQCKQTYYCSTACQRRDWSSHSTICRPVQQSLNKLEDNKSPFETKAIEVKSEVDCPPGVTKEITAGAERVMFSDLRSLQLKKTMEIKGTVTEFKHPSNFYIQLYSSEVLENMNQLSTSLKETYANVVPEDGYLPVKGEVCVAKYTVDQTWNRAIVQAVDVLQRKAHVLYIDYGNEEMIPIDSVHPLSRGLDLFPPSAIKCCVSGVIPTAGEWSEGCVAAVKALLFEQFCSVKVMDILEEEVLTCAVDLVLQSSGKQLDHVLVEMGYGVKPGEQSSTEQSVDHSALEDVGRVTVESKIVTDRNALIPKVLTLNVGDEFCGVVAHIQTPEDFFCQQLQSGHKLAELQESLSEYCGHVIPRSDFYPTIGDVCCAQFSEDDQWYRASVLAYASEESVLVGYVDYGNFEILSLKRLCPIIPKLLDLPMQALNCVLAGVKPSLGIWTPEAVCVMKEMVQNRMVTVRVVGMLGTRALVELIDKSVAPHVSASKALIDSGFAIKEKDVADKGSSMHTASVPLAIEGPAEALEWTWVEFTVDETVDVVVCMMYSPGEFYCHFLKDDALEKLDDLNQSLADYCAQKPPNGFKAEIGRPCCAFFSGDGNWYRALVKEILPSGNVKVHFVDYGNVEEVTTDQLQAILPQFLLLPFQGMQCWLVDIQPPNKHWTKEATARFQACVVGLKLQARVVEITANGVGVELTDLSTPYPKIISDVLIREQLVLRCGSPQDSLMSRPANQHKQIDSHRVQASPSAEQWKTMELPVNKTIAANVLEIISPALFYAIPSEMSENQEKLCVLAAELLEHCNAQKGQPAYRPRTGDACCAKYTNDDFWYRAIVLETSESDVKVLYADYGNIETLPLSRVQPIPASHLELPFQIIRCSLEGPMELNGSCSQLVMELLRNAMLNQSVVLSVKAISKNVHAVSVEKCSENGMINIAENLVMCGLAENLTSKRKSASTKEIPHSRDCCCTELQKQIEKHEQILLFLLNNPTNQSKFTEMKKLLRS
- binding (FLAG-tagged MIWI (mouse)): binds
- binding [1]: binds

Results, then the molecule that gave them:

- binding [1]: binds
Molecule: GFP-tagged RNF17 (from UniProt Q99MV7 1-1640)

- binding (FLAG-tagged MIWI (mouse)): binds
B2: GFP-tagged TDRD5 (protein, UniProt Q5VCS6 1-1040)
chain: MSEQERIQDCLRKEIRSLLISTKDGLTPQQLEKEYLLMVGNHLPLRILGYRSTMELVLDMPDVVSVCPGGDGTVILKAIPDESTKGIASLVAKQRRSHKVRNSMPKGRPSICSGRVPYRGRVPPILPAVVKSELKDLLALSPVLLSDFEKAFARRFGRSFQYMQYGFLSMFEVLNAASDVISVEQTRAGSLLTLKKSVSEDKQRGWPAGKVFTQPFRMKQQGSYSTGFPVMKAHFSQPISNMEPPKQVLSMAKTPTFNSVEASRLNHTEKLNQLESTFKSVIAQIGPGGTVDPELKRKIQFVVSKFPQGLFISKLLGEFELTFKEQLSPKQLGFLNVTELVGALSDILRVEFSEERQDLLVFDADLKPLPSGGPLSSVRNSCLVQPDKKTEANPWTSSLSRNSLSTVAVKKTTWDCPLKNQKEPEQKIYKKPNLVVKPLQLQVETNKPQLSLSVANHDIPPDAVRAKKLCRLPPLDTSTLVGVFVEYIISPSQFYIRIYSRDSSELLEDMMIEMRRCYSNQLVSDRYIMPEYFIQPGHLCCVKISEDKWWYRVIIHRILGKKEVEVFYPDFGNIGTVQKSSLRFLKCCYTKLPAQAIPCSLAWVRPAEEHWTARAILHFQKLCGLKPLVGVVDEYIDGILNIFLCDTSSNEDVYFHHVLRTEGHAIVCRENAPSKGFRDFNPPALYTNASSAGDMVLTDLGHPAQQHYLNEDQEILQQAQQDINDGKCISYLKSAPKELLKDSKLSSLKTHKSCEEDPRWSILQPKDLKEENEDEVPTGMPCLESVTIGDDVWDENWLPLQAKMGKAGSPASQLFTSNLVGKKQYQTGGEMAQKDWCFSTSKDIWDDSWQPLGLANDVKGGIHTPEGPIAQEKNTSTTRIQQQPDLQYPLDSSTLPKLEEFYISLIKSQQSAERSQSEPASIQTHAGRAASKALSSTPAVGDSPENHSGSVESSPGSLKKEDVSNSRAEATAKDKSQGAIDQLSFILSPQHQISQKLYIPRSTATAVLGAAARLATSRSLLHWYPSVKGGKLEAERDGVK

- binding [1]: binds
B3: GFP-tagged PNLDC1 (protein, UniProt B2RXZ1 1-531)
chain: MDVGADEFEQSLPLLQELVAGADFVGLDIEFTGLRSNLSRPQQISLFDLPSEWYLKTRQSVQQFTICQIGLSMFSSIEGESNKYVAHSCNFFLFPTTFGILDSEFSFQASSVQFLNQYGFDYNKFLKNGIPYMNEEQEKKIKHSILRGNWRVRSSLDKDQIKVVIDKVTQWLDLAEEGDQMTLPGIAGFQAFEVQLVLRQALPNIWTVLKEEWVIVKKVSQPQRWYLEHASCDQVSCWKEQILLSARGFSVFFQMLVKAQKPLVGHNMMMDLLHLHEKFFRPLPESYDQFKQNIHSLFPVLIDTKNVTKDIWKELRFPRVSNLLEVYEVLSSNLNPTKDSGPVIIHARQCKKYAETKCPHEAAYDAFLCGSVLLKVAHLLLQRVHGNGAVHEPAFPQYLDVLAPYVNQVNLIRAGVPKINFSGPDYPSIRPPVLILTVKRWPGVSEQQVYREFQNLCKFDVRRFTRSQFLLLTNKFKDARSVLKEYRNHPTLQVSLYRSWRHSPNITCLLQVCSIVTTWAMIAFLLGRPMP

- binding (FLAG-tagged MIWI (mouse)): binds
- binding [1]: binds
B6: GFP-tagged MOV10L1 (protein, UniProt Q99MV5 1-1187)
chain: MIDDLIYFSNDAVTSTVLLNVGQEVIAVVEENKVSNGLKAIRVEAVSDKWEDDSKNSSKGLSDSSPRVLIGCVTSMLEGAGYISQTTYFSLESVCEGFHPCKGDWVEAEYWIRPGTWSSEAISVKPLRYKRVDKVCISSLCGRNGVIEDSIFFSLDSLKLPEGYIPRRHDIVNAVVVESSQSCYIWRALCMTPVKRDATLGEAPQEPYGALLLKNKGDIEVTRMTSFGTLKEGESKSIVIWIENKGKFSRELVSCRLANWDKAHQFRFETQGRSKSCPGAAAGSVPEGENVNSLNHHREDKTDEIPESRLANSTEISPDGCACKEESREKGNTPEKQEPEPGGLIPPGEKTHIVVTCSAKNPGRCKELLLLCFSDFLIGRHLEVSVVSSEEALIAVREPFSWKKPKSSQTLVSAKTTVVVTTQKRNSRRQLPSFLPQYPIPDRLKKCVEQKIDILTFQPLLAELLNMSNYKEKFSTLLWLEEIHAEIELKEYNMSRVVLKRKGDLLVLEVPGLAESRPSLYAGDKLILKSQEYNGHVIEYIGYVMEIHEEDVTLKLNPGFEQMYNFEPMDVEFTYNRTTSRRCHYALEQVIHLGVKVLFPEEIILQSPQVTGNWSLAQDTKNDGQSITNITRNDGQSMTKVTRNDSQSITNIIRNDGQSITNVTRNDGQPITKVTRNNSQSITNITRNDGQPITKNKKTVKDQTKHTTEERHVGTTDQPEKASSTAETMDEIQIPKARDKEFFNPVLNENQKLAVRRILSGDCRPLPYILFGPPGTGKTVTIIEAVLQVHYALPDSRILVCAPSNSAADLVCLRLHESKVPKPAAMVRVNATCRFEETIIDAIKPYCRDGEDIWRASRFRIIITTCSSAGLFYQIGVRVGYFTHVFVDEAGQASEPECLIPLGLISDINGQIVLAGDPMQLGPVIKSRLAMAYGLNVSMLERLMSRPAYLRDENAFGACGAYNPLLVTKLVKNYRSHSALLALPSRLFYHRELEVCADPKVVTSLLGWEKLPRKGFPLIFHGVRGNEAREGRSPSWFSPAEAVQVMRYCCLLARSVSSQVSSKDIGVITPYRKQVEKIKILLRNVDLTDIKVGSVEEFQGQEYLVIVISTVRSNEDRFEDDRYFLGFLSNSKRFNVAITRPKALLIILGNPHVLVRDPCFGALLEYSVSNGVYTGCDLPPELQALQK
